From patent publication US20080221134A1, “8-ALKYNYLXANTHINES AND DERIVATIVES” (priority 2006, published 2008)

What was measured:
[1] = system: CGS-21680 induced catalepsy; test: Acute CGS-21680 induced catalepsy test; assay type: in vivo, rat; conditions: CGS-21680 i.p. 2 mg/kg compared to vehicle
Procedure: (§1) Animals were administered with Reserpine or CGS-21680 according to methods known to the skilled person in the art. These models and procedures are e.g. described by Ferré S. et al., Neurosci. Let., 1991, 130, 162; Ferré S. et al., Neuroscience, 1992, 51, 501; Kafka S. H. et al., Eur. J. Pharmacol., 1996, 295, 147; Rimondini R. et al., Neuropsychopharmacology, 1997, 17, 82 and are herein incorporated by reference. In the acute CGS-21680 induced catalepsy model (CGS model) the test compounds (TC, compounds according to the present invention) and CGS-21680 (i.p. 2 mg/kg) were administered 60 minutes before the start of the catalepsy bar measurement and behavioural testing described below (see also FIG. 1). In the acute Reserpine induced catalepsy model (RES model Resperine (subcutaneously, 3 mg/kg) was injected 24 h prior to the test compound application. Catalepsy bar measurement took place 60 minutes after test compound application (see FIG. 1). Test compounds were administered i.p. in DMSO in following doses (mg/kg): 0.1, 0.3, 1, 3, 10.
Dimethylsulfoxide (DMSO) was used as vehicle for the test compounds and Reserpine. Reserpine was dissolved in DMSO in a concentration of 3 mg/ml. A 10% (w/v) Cyclodextrin solution was used as vehicle for CGS-21680. CGS 21680 was dissolved in 10% (w/v) Cyclodextrine in a concentration of 2 mg/ml.
Caffeine was used as a reference compound in the CGS-21680 induced catalepsy model. A caffeine solution was prepared with water for injection purposes to a concentration of 30 mg/ml. The solution was administered intraperitoneally in a volume of 1 ml/kg (30 mg/kg) 30 minutes before the beginning of testing and after CGS-21680 pre-treatment (1 hour prior to testing).
The catalepsy bar after CGS-21680 administration was measured (CAT) as follows: The rat was placed with its forepaws on a log of wood. […] If the animal descended faster than 1 second, the trial was regarded as invalid. […] The following parameters were calculated: maximum time to descend (s) and median time to descend (s). […]
The rat is taken in the hand of the observer and the animal's body tone is rated as normal, soft or hard. […] The following parameters were calculated: mean occurrence of hard body tone and mean occurrence of soft body tone.
The rat is horizontally placed to an inclined plane for a maximum time of 30 seconds. Time to reach bottom or top is measured. […] Time to leave the inclined plane(s) was measured.
The rat is put on a grip and the observer pulls the animal back on his tail. The strength (fore paws and hind paws) by which it holds on the grid is scored as grasping and pulling, grasping without pulling or no grasping. […] The following parameters were calculated: mean score of fore paw grip strength and mean score of hind paw grip strength. […]

[2] = system: Reserpine induced catalepsy; test: Acute Reserpine induced catalepsy test; assay type: in vivo, rat; conditions: Reserpine s.c. 3 mg/kg compared to vehicle
Procedure: as §1
Dimethylsulfoxide (DMSO) was used as vehicle for the test compounds and Reserpine. […]
The catalepsy bar after Reserpine administration was measured (CAT) as follows: The rat was placed with its forepaws on a log of wood. […] The following parameters were calculated: maximum time to descend (s) and median time to descend (s). […]

Row | SMILES | grip strength, inducer compared to vehicle [1] | rating of hard body tone, inducer compared to vehicle [1] | rating of soft body tone, inducer compared to vehicle [1] | time leaving inclined plane, inducer compared to vehicle [1] | maximum catalepsy values, inducer compared to vehicle [2] | median catalepsy values, inducer compared to vehicle [2]
1 | CCNC(=O)[C@H]1O[C@@H](n2cnc3c(N)nc(NCCc4ccc(CCC(=O)O)cc4)nc32)[C@H](O)[C@@H]1O [CGS-21680, reference compound] | unaffected | decreased | significantly increased | unaffected | – | –
2 | COC(=O)[C@H]1[C@H]2C[C@@H]3c4[nH]c5cc(OC)ccc5c4CCN3C[C@H]2C[C@@H](OC(=O)c2cc(OC)c(OC)c(OC)c2)[C@@H]1OC [Reserpine, reserpine, reference compound] | – | – | – | – | significantly increased | significantly increased
